For assay [1], the target named is human CD47 on CCRF-CEM cells (CD47 positive cells) (human) (UniProt Q08722). The assay is described as follows: flow cytometry blocking assay on CCRF-CEM cells, hybridoma supernatant. (Flow cytometry measures light scatter and fluorescence of single cells or particles in a stream.)
Assay [2] shares this target. The assay is described as follows: CD47-SIRPα blocking experiment, FIG. 5 legend.

The chains behind the UniProt entries cited, without tags or fusion partners. Residues count along the entry.
UniProt Q08722, residues 19-323: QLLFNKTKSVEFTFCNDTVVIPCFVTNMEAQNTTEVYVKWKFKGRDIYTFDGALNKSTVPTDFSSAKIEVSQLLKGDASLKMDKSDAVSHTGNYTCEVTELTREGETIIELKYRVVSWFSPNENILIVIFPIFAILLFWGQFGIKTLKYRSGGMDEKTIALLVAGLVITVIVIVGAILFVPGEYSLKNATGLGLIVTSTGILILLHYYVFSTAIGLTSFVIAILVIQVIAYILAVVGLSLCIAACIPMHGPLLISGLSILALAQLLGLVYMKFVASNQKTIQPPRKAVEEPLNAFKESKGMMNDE

This is an account of results in patent US20210292412A1.

No constants are given. Whether binding was seen depends on the method and setting. Some binding calls cover weakened binding; strength is not graded here.

B1: hybridoma positive clone 7H5 (antibody, V domains shown)
VH: QVQLQQPGAELVKPGASVKMSCKASGYTFTNYNFHWVKQRPGQGLEWIGTFYPVNGDTSYNQKFDGKATVTADKSSSTAYMQLSSLTSEDSAVYYCARGGTRAMDYWGQGTSVTVSS
VL: DVLMTQTPLSLPVSLGDQASISCRSSQGIVHSNGNTYLAWYLQKPGQSPKLLIYKVSNRFSGVPDRFSGSGSGTDFTLKISRVEAEDLGVYYCFQGSHVPYTFGGGTKLEIK
For the molecule B1, the binding result in assay [1] and in assay [2] was “binds” throughout.

B2: hybridoma positive clone 2E4 (antibody, V domains shown)
VH: QIQLQQSGPEVVKPGASVEISCKASGYTFTDDYINWYKQKPGQGLEWIGWIYPGSGNAKYNEKFKGKATLIVDTSSTTAYMQLSSLTSEDTAVYFCSRRREDSFDYWGQGTTLTVSS
VL: DFVMSQSPSSLAVSVGEKVTMSCKSSQSLLYSSNQKNYLAWYQQKPGQSPKLLIYWASTRESGVPDRFTGSGSGTDFTLTISSVKPEDLAVYYCQQFYRYPLTFGAGTKLELK
As for B2, the binding result in assay [1] and in assay [2] was “binds” throughout.
